Experimental data from US11981693B2, “Organogermanium compound” (ASAI Germanium Research Institute Co., Ltd., priority 2019, dated 2024).

Assays:
[1] = Interactivity with H2S (NaHS) by 1H NMR of a mixed solution; conditions: molar ratio 1:1, pH 7.0 to 7.5, 20 mM, 10 mM phosphate buffer pH 7.4 in heavy water, 25° C.
Procedure: The ^1H NMR spectrum of a mixed solution obtained by dissolving the THGP octamer and NaHS (a sodium salt of H2S) (mixing molar ratio 1:1, pH 7.0 to 7.5, 20 mM) in a 10 mM phosphate buffer (pH 7.4) prepared with heavy water, was measured under the measurement conditions of 25° C., scan times of 16, and 300 MHz. The signal of residual HOD was offset to 4.80 ppm. For comparison, a mixed solution of Ge-132 and NaHS was measured in the same manner.

[2] = Interactivity with adenosine by 1H NMR of a mixed solution; conditions: molar ratio 1:1, pH 7.0 to 7.5, 100 mM, heavy water, 30° C.
Procedure: The ^1H NMR spectrum of a mixed solution obtained by dissolving the THGP octamer and adenosine (mixing molar ratio 1:1, pH 7.0 to 7.5, 100 mM) in heavy water was measured under the measurement conditions of 30° C., scan times of 16, and 300 MHz. The signal of residual HOD was offset to 4.80 ppm. For comparison, a mixed solution of Ge-132 and adenosine was measured in the same way.

Substance	reactivity with NaHS (new 1H NMR signals of complex with THGP) [1]	reactivity with adenosine (new 1H NMR signals of complex with THGP) [2]
1,7,9,15-tetra(2′-sodium carboxyethylgermanium)-3,5,11,13-tetra-[sodium propanato(2-)-C^3′,O′]-germanium-2,4,6,8,10,12,14,16,17,18,19,20-dodecaoxa-pentacyclo[8.1^1,5.1^7,11.1^9,13.1^3,15.]icosane [THGP octamer]	shows reactivity with NaHS	shows reactivity with adenosine
poly-trans-[(2-carboxyethyl)germasesquioxane] [Ge-132, reference compound]	shows reactivity with NaHS	shows reactivity with adenosine
